Data as given in publication PMC5357304.
No constants are given. Whether binding was seen depends on the method and setting. For some of these results: Binding seen in cells or lysates may run through a third protein. Some binding calls cover weakened binding; strength is not graded here.

Chains of the proteins cited; added tags and fusions are not shown.
UniProt Q8BUN5: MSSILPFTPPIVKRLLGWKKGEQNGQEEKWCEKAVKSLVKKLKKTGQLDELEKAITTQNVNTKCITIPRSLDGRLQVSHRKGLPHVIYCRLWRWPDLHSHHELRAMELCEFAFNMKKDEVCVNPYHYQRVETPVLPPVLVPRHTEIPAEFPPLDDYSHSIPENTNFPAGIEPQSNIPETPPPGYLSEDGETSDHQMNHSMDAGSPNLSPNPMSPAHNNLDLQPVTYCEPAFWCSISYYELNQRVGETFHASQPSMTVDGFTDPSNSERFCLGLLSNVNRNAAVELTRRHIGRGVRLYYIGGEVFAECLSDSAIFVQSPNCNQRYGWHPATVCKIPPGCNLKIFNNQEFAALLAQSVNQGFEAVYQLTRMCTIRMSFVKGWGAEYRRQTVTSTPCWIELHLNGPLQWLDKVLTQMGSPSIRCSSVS
UniProt P38532: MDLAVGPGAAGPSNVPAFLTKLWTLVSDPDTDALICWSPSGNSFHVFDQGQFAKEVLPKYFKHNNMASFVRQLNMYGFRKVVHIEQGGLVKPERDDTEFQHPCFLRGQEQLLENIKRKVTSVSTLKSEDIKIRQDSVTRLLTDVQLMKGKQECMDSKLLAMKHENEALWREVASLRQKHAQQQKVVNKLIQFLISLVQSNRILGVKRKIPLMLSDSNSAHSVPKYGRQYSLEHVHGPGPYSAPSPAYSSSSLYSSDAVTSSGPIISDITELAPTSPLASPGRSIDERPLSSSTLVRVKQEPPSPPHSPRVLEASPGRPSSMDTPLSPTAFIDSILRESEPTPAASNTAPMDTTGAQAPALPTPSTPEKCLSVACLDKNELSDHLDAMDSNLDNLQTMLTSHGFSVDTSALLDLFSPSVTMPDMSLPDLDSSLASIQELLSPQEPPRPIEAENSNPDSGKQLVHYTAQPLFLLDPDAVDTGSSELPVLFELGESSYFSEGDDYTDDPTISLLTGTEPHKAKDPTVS

How the values were obtained:
[1] = biological target: Smad family member 3 (Smad3), endogenous in mouse heart and cardiac fibroblasts (mouse (endogenous in mouse left ventricle and cardiac fibroblasts)) (UniProt Q8BUN5); experiment: co-IP; 500 ug total protein from left ventricle of WT, HSF1 TG and HSF1 KO mice, sham or TAC for 4 weeks; IP with anti-total HSF1 or anti-total Smad3 and protein A/G Plus-Agarose; blot for Smad3 or HSF1
[2] = biological target: Smad family member 3 (Smad3), endogenous in mouse heart and cardiac fibroblasts (mouse (endogenous in mouse left ventricle and cardiac fibroblasts)) (UniProt Q8BUN5); experiment: co-IP; total protein of cultured cardiac fibroblasts from WT mouse heart, infected by indicated adenoviruses, mechanically stretched for 6, 12 and 24 h; IP with antibodies against HSF1 or Smad3; blot for Smad3 or HSF1
[3] = biological target: GST fusion Smad3 (UniProt Q8BUN5); experiment: pull-down; GST fusion protein on beads (0-100 ng), pre-incubated with 100 ug/ml BSA; 10 ng recombinant partner, 4 °C, 1 h; 50 mM Tris pH 7.5, 28 uM ZnCl2, 1% Triton X100, 220 mM NaCl, 10% glycerol; washes with 500 mM NaCl; blot with Smad3 or HSF1 antibody; both purified
[4] = biological target: GST fusion HSF1 (UniProt P38532); experiment: as above

For “Heat shock transcription factor 1 (HSF1), endogenous in mouse heart and cardiac fibroblasts (from UniProt P38532 1-525)”, the binding [1] was “binds” and the binding [2] was “binds”.
In the case of “recombinant HSF1 (from UniProt P38532 1-525)”, the binding [3] is reported as “binds”.
In the case of “recombinant Smad3 (from UniProt Q8BUN5 1-425)”, the binding [4] is reported as “binds”.
